The values below come from patent US9784752B2, “Venlafaxine assay” (Randox Laboratories, Limited, priority 2012, dated 2017).

The experiment concerns polyclonal antibody raised to Immunogen II. Put plainly: Competitive biochip immunoassay (Evidence Investigator) with Hapten-1 HRP detecting agent. The experiment is classed as binding, sheep. The following applies: concentration causing 50% displacement of signal; competition with Hapten-1 HRP for immobilised polyclonal antibody; 30 minutes at 30° C. The method, then: A semi-automated Evidence Investigator analyser (Randox Laboratories Ltd., Crumlin, UK) was used as the platform for a biochip assay for the detection of venlafaxine and O-desmethylvenlafaxine. Immunogen II was administered to adult sheep on a monthly basis to provide target-specific polyclonal antisera. IgG was extracted from the antisera, and the purified antibody was immobilised on a biochip (9 mm×9 mm). The assay is based on competition for binding sites of a polyclonal antibody between Hapten-1HRP detecting agent (Example 10) and venlafaxine and O-desmethylvenlafaxine and potential cross-reactants. The antibody was immobilised and stabilised onto the biochip surface as previously described (Fitzgerald et al., 2005). Assay diluent (155 μL), calibrator/venlafaxine and O-desmethylvenlafaxine or potential cross-reactant (25 μL) followed by Hapten-1 HRP detecting agent (120 μL) were added to the appropriate biochip. The biochips were then incubated for 30 minutes at 30° C. on a thermoshaker set at 370 rpm. The biochips were then subjected to 2 quick wash cycles using the wash buffer provided, followed by 4×2 minute wash cycles. 250 μL of signal (1:1 luminol+peroxide, v/v) was then added to each biochip, and after 2 minutes the biochip carrier was imaged in the Evidence Investigator analyser. […]

Consider `CCOC(=O)C1(c2ccccc2)CCN(C)CC1` [Meperidine], for which the 50% inhibitory concentration (IC50) was greater than 0.32 µg/mL.

Usually IC50 stands for the concentration needed to halve the response being measured. Read a low IC50 as greater potency.
